In the supplement of paper PMC7666118:
This is one part of the list.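 The calls were made as follows: active = dose-dependent thermal stabilisation significant by F-test of dose-response against flat model at 10% FDR; inactive = not significant.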

The chains behind the UniProt entries cited, without tags or fusion partners. Where a name states a change or a piece, a line headed by the entry shows the natural chain unless it says otherwise.
UniProt Q9NRA8: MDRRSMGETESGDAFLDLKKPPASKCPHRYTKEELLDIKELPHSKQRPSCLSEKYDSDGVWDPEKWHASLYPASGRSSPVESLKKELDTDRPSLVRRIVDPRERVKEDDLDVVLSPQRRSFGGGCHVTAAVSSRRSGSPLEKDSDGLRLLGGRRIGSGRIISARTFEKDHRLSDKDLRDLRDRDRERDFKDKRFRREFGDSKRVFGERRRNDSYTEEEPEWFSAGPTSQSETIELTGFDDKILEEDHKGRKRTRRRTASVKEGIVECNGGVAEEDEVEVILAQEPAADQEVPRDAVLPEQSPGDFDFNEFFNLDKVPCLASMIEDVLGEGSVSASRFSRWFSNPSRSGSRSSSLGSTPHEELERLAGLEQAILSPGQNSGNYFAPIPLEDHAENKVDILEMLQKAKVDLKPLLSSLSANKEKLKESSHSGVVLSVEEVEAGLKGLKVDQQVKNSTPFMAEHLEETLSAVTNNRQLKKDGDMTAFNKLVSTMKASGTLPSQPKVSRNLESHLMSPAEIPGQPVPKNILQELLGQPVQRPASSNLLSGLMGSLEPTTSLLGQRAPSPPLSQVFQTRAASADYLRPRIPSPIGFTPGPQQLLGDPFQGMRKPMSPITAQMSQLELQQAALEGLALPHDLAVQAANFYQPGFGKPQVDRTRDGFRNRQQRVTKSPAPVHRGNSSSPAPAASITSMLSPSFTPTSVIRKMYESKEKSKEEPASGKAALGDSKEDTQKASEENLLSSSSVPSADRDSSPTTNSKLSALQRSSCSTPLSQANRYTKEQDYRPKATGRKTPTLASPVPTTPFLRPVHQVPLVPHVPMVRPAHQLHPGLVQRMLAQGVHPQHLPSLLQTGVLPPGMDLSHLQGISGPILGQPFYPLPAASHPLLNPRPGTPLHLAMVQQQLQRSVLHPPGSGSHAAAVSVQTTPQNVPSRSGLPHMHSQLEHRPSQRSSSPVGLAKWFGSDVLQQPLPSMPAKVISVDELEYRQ
UniProt Q96PV7: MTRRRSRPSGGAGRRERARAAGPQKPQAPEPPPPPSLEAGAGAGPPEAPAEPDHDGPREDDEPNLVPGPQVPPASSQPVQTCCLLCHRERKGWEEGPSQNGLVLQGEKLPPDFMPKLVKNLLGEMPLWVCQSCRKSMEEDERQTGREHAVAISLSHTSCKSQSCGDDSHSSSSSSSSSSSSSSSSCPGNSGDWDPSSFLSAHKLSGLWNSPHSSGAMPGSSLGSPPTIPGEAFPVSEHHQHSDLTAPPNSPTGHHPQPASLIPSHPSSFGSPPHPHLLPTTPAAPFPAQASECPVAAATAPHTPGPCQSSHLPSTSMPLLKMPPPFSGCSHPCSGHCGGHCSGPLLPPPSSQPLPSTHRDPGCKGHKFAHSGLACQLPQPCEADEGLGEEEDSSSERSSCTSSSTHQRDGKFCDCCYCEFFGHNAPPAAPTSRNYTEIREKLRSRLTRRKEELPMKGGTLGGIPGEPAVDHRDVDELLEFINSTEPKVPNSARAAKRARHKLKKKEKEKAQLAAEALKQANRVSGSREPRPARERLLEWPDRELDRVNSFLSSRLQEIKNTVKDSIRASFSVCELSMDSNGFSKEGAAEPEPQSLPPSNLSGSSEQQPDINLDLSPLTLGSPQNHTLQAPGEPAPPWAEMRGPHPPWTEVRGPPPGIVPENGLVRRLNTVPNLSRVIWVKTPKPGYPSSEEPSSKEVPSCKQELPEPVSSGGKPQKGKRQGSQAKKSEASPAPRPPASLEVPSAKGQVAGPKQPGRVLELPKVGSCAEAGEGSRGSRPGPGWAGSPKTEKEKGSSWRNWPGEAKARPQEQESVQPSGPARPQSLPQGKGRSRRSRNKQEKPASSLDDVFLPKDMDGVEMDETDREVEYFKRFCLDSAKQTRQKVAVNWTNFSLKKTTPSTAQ
UniProt P38117: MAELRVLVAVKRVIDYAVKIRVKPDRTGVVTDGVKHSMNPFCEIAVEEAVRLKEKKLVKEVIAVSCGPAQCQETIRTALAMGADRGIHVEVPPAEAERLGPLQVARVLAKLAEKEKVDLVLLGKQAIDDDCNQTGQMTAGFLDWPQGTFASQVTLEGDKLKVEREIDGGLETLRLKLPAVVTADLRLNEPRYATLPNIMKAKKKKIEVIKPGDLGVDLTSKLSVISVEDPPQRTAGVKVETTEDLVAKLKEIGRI
UniProt Q9BXW9: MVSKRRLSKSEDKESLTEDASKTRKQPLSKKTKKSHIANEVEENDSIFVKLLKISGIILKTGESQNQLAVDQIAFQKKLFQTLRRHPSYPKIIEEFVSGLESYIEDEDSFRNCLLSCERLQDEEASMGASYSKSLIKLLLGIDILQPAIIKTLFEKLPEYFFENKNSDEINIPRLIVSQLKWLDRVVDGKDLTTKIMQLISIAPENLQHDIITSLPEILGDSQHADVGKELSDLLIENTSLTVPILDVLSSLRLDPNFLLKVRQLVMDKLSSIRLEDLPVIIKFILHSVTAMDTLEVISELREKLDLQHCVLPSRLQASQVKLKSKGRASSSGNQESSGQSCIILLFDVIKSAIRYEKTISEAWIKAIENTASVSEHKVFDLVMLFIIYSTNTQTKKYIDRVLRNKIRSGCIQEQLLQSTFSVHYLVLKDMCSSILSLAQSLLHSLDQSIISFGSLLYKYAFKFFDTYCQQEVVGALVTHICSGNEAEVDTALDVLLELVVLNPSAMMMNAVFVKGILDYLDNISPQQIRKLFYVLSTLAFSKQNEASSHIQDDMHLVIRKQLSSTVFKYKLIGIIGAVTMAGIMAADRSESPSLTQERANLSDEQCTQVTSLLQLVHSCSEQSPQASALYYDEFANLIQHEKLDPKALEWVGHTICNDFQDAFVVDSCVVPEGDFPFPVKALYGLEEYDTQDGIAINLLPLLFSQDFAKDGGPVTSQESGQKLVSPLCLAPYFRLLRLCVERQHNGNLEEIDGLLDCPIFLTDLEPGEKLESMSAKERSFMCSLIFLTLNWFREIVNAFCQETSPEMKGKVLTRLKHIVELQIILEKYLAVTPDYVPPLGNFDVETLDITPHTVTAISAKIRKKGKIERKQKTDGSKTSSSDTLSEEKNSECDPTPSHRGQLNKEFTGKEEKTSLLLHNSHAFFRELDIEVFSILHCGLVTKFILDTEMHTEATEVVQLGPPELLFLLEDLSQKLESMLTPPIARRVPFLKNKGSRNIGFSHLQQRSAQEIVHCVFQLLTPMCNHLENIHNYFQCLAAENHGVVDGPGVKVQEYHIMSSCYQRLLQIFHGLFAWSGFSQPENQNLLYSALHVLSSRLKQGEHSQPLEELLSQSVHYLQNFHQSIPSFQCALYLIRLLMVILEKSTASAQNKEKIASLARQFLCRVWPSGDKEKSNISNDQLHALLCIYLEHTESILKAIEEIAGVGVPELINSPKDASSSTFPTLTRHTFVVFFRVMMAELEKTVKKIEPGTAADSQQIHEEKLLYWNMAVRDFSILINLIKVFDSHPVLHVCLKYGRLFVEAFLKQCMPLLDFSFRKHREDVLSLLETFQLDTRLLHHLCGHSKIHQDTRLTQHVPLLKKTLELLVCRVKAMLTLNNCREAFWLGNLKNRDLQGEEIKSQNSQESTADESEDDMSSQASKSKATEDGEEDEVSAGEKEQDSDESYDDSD
UniProt Q9H098: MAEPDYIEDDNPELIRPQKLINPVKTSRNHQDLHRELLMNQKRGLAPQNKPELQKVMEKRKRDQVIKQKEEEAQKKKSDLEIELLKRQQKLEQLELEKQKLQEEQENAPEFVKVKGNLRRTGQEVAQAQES
UniProt Q9Y285: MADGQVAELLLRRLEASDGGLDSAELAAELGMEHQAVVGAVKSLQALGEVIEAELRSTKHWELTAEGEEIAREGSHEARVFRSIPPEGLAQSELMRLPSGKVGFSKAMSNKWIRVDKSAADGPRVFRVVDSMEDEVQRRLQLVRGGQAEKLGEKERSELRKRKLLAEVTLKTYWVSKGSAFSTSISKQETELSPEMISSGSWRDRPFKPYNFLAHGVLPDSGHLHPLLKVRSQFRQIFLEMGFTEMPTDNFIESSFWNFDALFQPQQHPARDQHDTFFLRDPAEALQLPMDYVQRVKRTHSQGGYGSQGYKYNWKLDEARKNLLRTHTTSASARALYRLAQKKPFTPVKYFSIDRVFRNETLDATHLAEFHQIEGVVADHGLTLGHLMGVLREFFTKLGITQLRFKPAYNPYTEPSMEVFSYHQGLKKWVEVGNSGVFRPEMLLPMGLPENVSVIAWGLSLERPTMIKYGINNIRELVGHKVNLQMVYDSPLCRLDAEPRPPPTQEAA
UniProt P34913, whole entry: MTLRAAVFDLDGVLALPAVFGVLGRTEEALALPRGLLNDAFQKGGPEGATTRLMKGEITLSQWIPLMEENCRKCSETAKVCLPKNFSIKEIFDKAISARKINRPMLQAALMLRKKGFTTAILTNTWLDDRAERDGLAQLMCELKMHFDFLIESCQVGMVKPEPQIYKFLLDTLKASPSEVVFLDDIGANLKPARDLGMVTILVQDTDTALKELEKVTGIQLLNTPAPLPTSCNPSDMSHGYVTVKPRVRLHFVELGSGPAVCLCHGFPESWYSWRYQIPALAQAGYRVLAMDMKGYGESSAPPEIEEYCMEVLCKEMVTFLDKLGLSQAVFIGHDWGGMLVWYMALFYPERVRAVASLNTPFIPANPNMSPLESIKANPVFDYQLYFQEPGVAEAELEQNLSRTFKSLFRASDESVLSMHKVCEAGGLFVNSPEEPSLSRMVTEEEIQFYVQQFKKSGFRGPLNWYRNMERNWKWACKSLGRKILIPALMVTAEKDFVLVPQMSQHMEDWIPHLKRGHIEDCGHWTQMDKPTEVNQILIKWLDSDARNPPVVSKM
UniProt Q9NVI1: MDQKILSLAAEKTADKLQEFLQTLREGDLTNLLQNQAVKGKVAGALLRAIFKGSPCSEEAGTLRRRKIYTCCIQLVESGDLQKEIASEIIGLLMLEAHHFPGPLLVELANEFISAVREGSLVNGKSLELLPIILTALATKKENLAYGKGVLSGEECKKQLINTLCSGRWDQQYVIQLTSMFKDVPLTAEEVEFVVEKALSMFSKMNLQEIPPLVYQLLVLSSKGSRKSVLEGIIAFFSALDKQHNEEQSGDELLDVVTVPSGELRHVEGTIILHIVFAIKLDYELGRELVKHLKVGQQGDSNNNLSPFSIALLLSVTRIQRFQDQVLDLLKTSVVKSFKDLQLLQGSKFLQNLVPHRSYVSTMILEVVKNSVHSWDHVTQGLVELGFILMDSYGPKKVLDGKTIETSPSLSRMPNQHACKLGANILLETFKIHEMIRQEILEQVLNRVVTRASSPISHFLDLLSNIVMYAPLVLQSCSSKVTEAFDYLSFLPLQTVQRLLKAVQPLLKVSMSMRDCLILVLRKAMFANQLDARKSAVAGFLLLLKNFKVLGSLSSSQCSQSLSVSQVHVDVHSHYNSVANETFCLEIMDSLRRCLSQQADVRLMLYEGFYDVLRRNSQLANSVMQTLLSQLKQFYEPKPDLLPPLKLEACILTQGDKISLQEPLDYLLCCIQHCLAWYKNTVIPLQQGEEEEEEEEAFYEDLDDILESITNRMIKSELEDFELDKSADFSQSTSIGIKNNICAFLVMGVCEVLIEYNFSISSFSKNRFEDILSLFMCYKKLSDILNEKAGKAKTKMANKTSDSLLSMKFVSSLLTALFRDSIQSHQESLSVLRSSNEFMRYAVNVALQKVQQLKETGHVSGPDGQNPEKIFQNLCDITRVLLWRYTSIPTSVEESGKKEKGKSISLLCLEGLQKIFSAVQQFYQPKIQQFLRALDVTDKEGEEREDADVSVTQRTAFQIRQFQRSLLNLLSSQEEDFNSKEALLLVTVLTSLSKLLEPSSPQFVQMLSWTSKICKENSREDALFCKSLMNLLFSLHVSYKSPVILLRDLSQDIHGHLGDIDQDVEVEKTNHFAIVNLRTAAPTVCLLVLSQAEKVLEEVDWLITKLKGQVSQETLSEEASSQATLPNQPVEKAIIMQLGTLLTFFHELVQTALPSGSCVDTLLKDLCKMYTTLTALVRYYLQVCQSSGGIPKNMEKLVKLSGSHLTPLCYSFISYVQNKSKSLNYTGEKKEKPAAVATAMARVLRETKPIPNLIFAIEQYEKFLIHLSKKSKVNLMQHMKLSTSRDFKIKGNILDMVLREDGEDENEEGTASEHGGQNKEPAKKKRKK

Compound: Nc1nc2c(ncn2[C@@H]2O[C@H](COP(=O)(O)OP(=O)(O)OP(=O)(O)O)[C@@H](O)[C@H]2O)c(=O)[nH]1
Assay: dose-dependent thermal stabilisation call (2D-TPP, DLPTP, 10% FDR) (binary (1 = stabilised)); higher = stabilised by the compound
Details: system: Jurkat gel-filtered lysate; concentration range 1-500 µM

Target | dose-dependent thermal stabilisation call
FCHO1 (UniProt O14526) | inactive: 0
EIF4G1 (UniProt Q04637) | inactive: 0
EXOC8 (UniProt Q8IYI6) | inactive: 0
EIF4ENIF1 (UniProt Q9NRA8) | inactive: 0
FAM193B (UniProt Q96PV7) | inactive: 0
FNTB (UniProt P49356) | inactive: 0
ERAP2 (UniProt Q6P179) | inactive: 0
ETAA1 (UniProt Q9NY74) | inactive: 0
EIF5 (UniProt P55010) | inactive: 0
FRG1 (UniProt Q14331) | inactive: 0
ETFB (UniProt P38117) | inactive: 0
FAHD1 (UniProt Q6P587) | inactive: 0
EIF3C (UniProt Q99613) | inactive: 0
ESD (UniProt P10768) | inactive: 0
FGFR1OP2 (UniProt Q9NVK5) | inactive: 0
FANCD2 (UniProt Q9BXW9) | active: 1
FUK (UniProt Q8N0W3) | inactive: 0
EIF4B (UniProt P23588) | inactive: 0

Target | dose-dependent thermal stabilisation call
EXOC2 (UniProt Q96KP1) | inactive: 0
FUBP3 (UniProt Q96I24) | inactive: 0
FAM129B (UniProt Q96TA1) | active: 1
FAM107B (UniProt Q9H098) | inactive: 0
EMG1 (UniProt Q92979) | inactive: 0
FOXO3 (UniProt O43524) | inactive: 0
FARSA (UniProt Q9Y285) | active: 1
ERICH5 (UniProt Q6P6B1) | inactive: 0
EIF3F (UniProt O00303) | inactive: 0
FBXO6 (UniProt Q9NRD1) | active: 1
EPHX2 (UniProt P34913) | inactive: 0
FAM175A (UniProt Q6UWZ7) | inactive: 0
FAM76A (UniProt Q8TAV0) | inactive: 0
EVL (UniProt Q9UI08) | inactive: 0
FBLN2 (UniProt P98095) | inactive: 0
FANCI (UniProt Q9NVI1) | inactive: 0
FNBP1L (UniProt Q5T0N5) | inactive: 0
ENGASE (UniProt Q8NFI3) | inactive: 0

2 records drawn at random from the list so far, as already listed:
Target | dose-dependent thermal stabilisation call
FBXO6 (UniProt Q9NRD1) | active: 1
FARSA (UniProt Q9Y285) | active: 1
